US20230040415A1 (PureTech LYT 100, Inc., priority 2020, published 2023)
Some entries share one result that the patent states for a list of compounds. For at least one compound, name, drawing or mass did not settle the structure.

Experiment: Single-dose crossover clinical trial, 801 mg LYT-100 vs pirfenidone, plasma pharmacokinetics
Conditions: after Pirfenidone (LYT-101) 801 mg; metabolite (label)/LYT-101

Structure (SMILES): Cc1ccc(=O)n(-c2ccc(O)cc2)c1 [LYT-104, 4′-hydroxy-pirfenidone]
- Metabolite/Parent Ratio, AUC0-∞, Mean: less than 2%
